Counter-ions that a name gives are not always drawn. The list shows a part of the results. Most values come without repeats; read them as rough.
tested on: hsa-miR-132-3p; test: miR-132-3p level in NGN2-iNs after compound treatment (TMM-normalised, ComBat batch-corrected) (batch-corrected normalised expression (arbitrary units)); higher = higher miR-132-3p expression; settings: 10 µM; 24 h; human iPSC-derived NGN2 neurons (BR43)

| SMILES | miR-132-3p level in NGN2-iNs |
| --- | --- |
| Nc1ncn([C@@H]2O[C@H](CO)[C@@H](O)[C@H]2O)c(=O)n1 [Azacitidine] | 0.764 |
| CCCNC(C)C(=O)Nc1ccccc1C (stereo unspecified) [Prilocaine] | -0.951 |
| O=C(Nc1ccc(OC(F)(F)F)cc1)c1sccc1NCc1ccnc2ccccc12 | -0.203 |
| COc1cc(/C=C/C(=O)N2CCN(CC(=O)N3CCCC3)CC2)cc(OC)c1OC [Cinepazide maleate] | 1.74 |
| Cn1c(=O)cc(N2CCC[C@@H](N)C2)n(Cc2cc(F)ccc2C#N)c1=O [Trelagliptin] | 0.241 |
| O=C(c1cccc(Cl)c1F)N1CCN(Cc2cccc(Nc3nccs3)n2)CC1 | -1.05 |
| CC(C)[C@H]1C(=O)N[C@@H](CCCNC(=N)N)C(=O)NCC(=O)N[C@@H](CC(=O)O)C(=O)N[C@H](Cc2ccccc2)C(=O)N1C [Cilengitide trifluoroacetate] | -0.0437 |
| COc1cc(OC)c2c(=O)[nH]c(-c3cc(C)c(OCCO)c(C)c3)nc2c1 [Apabetalone (RVX-208)] | -0.383 |
| CC(C)(C)NC[C@H](O)COc1nsnc1N1CCOCC1 [Timolol Maleate] | -0.422 |
| COC1=C(OC)C(=O)C(CCCCCCCCCCO)=C(C)C1=O [Idebenone] | -0.717 |
| Cc1nc(NC(=O)N2CCC[C@H]2C(N)=O)sc1-c1csc(C(C)(C)C)n1 | -0.906 |
| CCOC(=O)[C@H](CCc1ccccc1)N[C@H]1CCc2ccccc2N(CC(=O)O)C1=O [Benazepril HCl] | -0.0835 |
| CC[C@H]1OC(=O)[C@H](C)[C@@H](O[C@H]2C[C@@](C)(OC)[C@@H](O)[C@H](C)O2)[C@H](C)[C@@H](O[C@@H]2O[C@H](C)C[C@H](N(C)C)[C@H]2O)[C@](C)(O)C[C@@H](C)/C(=N\OCOCCOC)[C@H](C)[C@@H](O)[C@]1(C)O [Roxithromycin] | 0.391 |
| O=C(NCCS(=O)(=O)c1ccc(C(F)(F)F)cn1)c1ccc(Cl)cc1 | 0.124 |
| C=C1CC[C@H](O)C/C1=C/C=C1\CCC[C@]2(C)[C@@H]([C@H](C)CCCC(C)(C)O)CC[C@@H]12 [Calcifediol] | -0.193 |
| CC(C)CC(=O)Nc1n[nH]c2c1CN(C(=O)C1CCN(C)CC1)C2(C)C | 0.785 |
| Nc1nc(Cl)nc2c1ncn2[C@@H]1O[C@H](CO)[C@@H](O)[C@@H]1F [Clofarabine] | 0.898 |
| CN1CC[C@H](c2c(O)cc(O)c3c(=O)cc(-c4ccccc4Cl)oc23)[C@H](O)C1 [Flavopiridol HCl] | 0.765 |
| CC(C)NCC(O)COc1ccc(COCCOC(C)C)cc1 (stereo unspecified) [Bisoprolol fumarate] | -0.268 |
| O=c1cc(-c2ccc(O)cc2)oc2cc(O)cc(O)c12 [Apigenin] | -0.0356 |
| C[C@@H](N)[C@H]1CC[C@H](C(=O)Nc2ccncc2)CC1 | 0.714 |
| NC(CO)(CO)CO [Trometamol] | 1.33 |
| O=c1ncccn1[C@@H]1O[C@H](CO)[C@@H](O)[C@H]1O | -1.21 |
| O=C(CCCCCCNC(=O)c1cnc(N(c2ccccc2)c2ccccc2)nc1)NO [Ricolinostat (ACY-1215)] | 2.43 |
| CC(C)n1nc(-c2cc3cc(O)ccc3[nH]2)c2c(N)ncnc21 [Torkinib (PP242)] | -1.32 |
| COc1nc(C)nc(Cl)c1NC1=NCCN1 [Moxonidine] | 0.587 |

| SMILES | miR-132-3p level in NGN2-iNs |
| --- | --- |
| O=C(Nc1cc(C(F)(F)F)ccc1N1CCCCC1)c1ccncc1 | 0.22 |
| Cc1cc(Cn2cnc3c2CC(C(=O)O)N(C(=O)C(c2ccccc2)c2ccccc2)C3)ccc1N(C)C (stereo unspecified) | 1.07 |
| Cc1ccc(S(=O)(=O)NC(=O)NN2CC3CCCC3C2)cc1 (stereo unspecified) [Gliclazide] | -0.607 |
| COc1ccc2cc(CCC(C)=O)ccc2c1 [Nabumetone] | -0.678 |
| C[C@H]1[C@@H](O)O[C@@H]2O[C@@]3(C)CC[C@H]4[C@H](C)CC[C@@H]1[C@@]24OO3 [Dihydroartemisinin (DHA)] | -0.336 |
| COc1ccc(-c2oc3c(CC=C(C)C)c(O[C@@H]4O[C@H](CO)[C@@H](O)[C@H](O)[C@H]4O)cc(O)c3c(=O)c2O[C@@H]2O[C@@H](C)[C@H](O)[C@@H](O)[C@H]2O)cc1 [Icariin] | -0.527 |
| CCn1cc(C(=O)O)c(=O)c2ccc(C)nc21 [Nalidixic acid] | -0.537 |
| CN(C)c1ccc(C(=O)NCCCCCCC(=O)NO)cc1 | 0.368 |
| CCO[C@@H]1OC(=O)C[C@@H]1NC(=O)[C@@H]1CCCN1C(=O)[C@@H](NC(=O)c1ccc(N)c(Cl)c1)C(C)(C)C [Belnacasan (VX-765)] | 0.356 |
| O=C(CCCN1CC=C(n2c(=O)[nH]c3ccccc32)CC1)c1ccc(F)cc1 [Droperidol] | 0.509 |
| Cc1ncc([N+](=O)[O-])n1CCO [Metronidazole] | -0.047 |
| OC(CCN1CCCCC1)(c1ccccc1)C1CC2C=CC1C2 (stereo unspecified) [Biperiden HCl] | 0.277 |
| CC(=O)O/N=C1\C(=O)N(Cc2cc(Cl)ccc2Cl)c2ccc(Cl)cc21 | 0.343 |
| CCN(Cc1ccncc1)C(=O)C(CO)c1ccccc1 (stereo unspecified) [Tropicamide] | -0.928 |
| Cc1ccc(C(=O)c2cc(O)c(O)c([N+](=O)[O-])c2)cc1 [Tolcapone] | -1.33 |
| O=C([O-])c1ccccc1O.[Na+] [Sodium salicylate] | -0.512 |
| C=CC[C@@H]1/C=C(\C)C[C@H](C)C[C@H](OC)[C@H]2O[C@@](O)(C(=O)C(=O)N3CCCC[C@H]3C(=O)O[C@H](/C(C)=C/[C@@H]3CC[C@@H](O)[C@H](OC)C3)[C@H](C)[C@@H](O)CC1=O)[C@H](C)C[C@@H]2OC [Tacrolimus (FK506)] | 0.0574 |
| CN(C)Cc1cccc(N=C(c2ccccc2)c2c(O)[nH]c3cc(C(N)=O)ccc23)c1 | 1.97 |
| O=C(N/N=C/c1ccc(O)c(O)c1)c1cc2ccccc2cc1O [Dynasore] | -0.233 |
| CC(C)C[C@H](NC(=O)[C@H](CCc1ccccc1)NC(=O)CN1CCOCC1)C(=O)N[C@@H](Cc1ccccc1)C(=O)N[C@@H](CC(C)C)C(=O)[C@@]1(C)CO1 [Carfilzomib (PR-171)] | -0.658 |
| O=S(=O)(c1ccccc1)c1cnc2c(N3CCNCC3)cccc2c1 | -0.154 |
| NC(=O)N/N=C/c1ccc([N+](=O)[O-])o1 [Nitrofural] | 2.65 |
| O=C(O[C@H]1CN2CCC1CC2)N1CCc2ccccc2[C@@H]1c1ccccc1 [Solifenacin succinate] | -0.141 |
| O=C(c1ccc(F)cc1)N1CCCC(c2nc(-c3ccc(F)cc3)no2)C1 (stereo unspecified) | -0.399 |
| CN1CCCC(n2nc(Cc3ccc(Cl)cc3)c3ccccc3c2=O)CC1 (stereo unspecified) [Azelastine HCl] | 2.51 |
| CC1=CC(=O)NS(=O)(=O)O1 [Acesulfame Potassium] | -1.06 |

As entered above.
Entry of CN(C)Cc1cccc(N=C(c2ccccc2)c2c(O)[nH]c3cc(C(N)=O)ccc23)c1 under miR-132-3p level in NGN2-iNs: 1.97
Entry of CN1CCCC(n2nc(Cc3ccc(Cl)cc3)c3ccccc3c2=O)CC1 (stereo unspecified) [Azelastine HCl] under miR-132-3p level in NGN2-iNs: 2.51

(next part)

| SMILES | miR-132-3p level in NGN2-iNs |
| --- | --- |
| CN(C)CCC[C@@]1(c2ccc(F)cc2)OCc2cc(C#N)ccc21 [Escitalopram Oxalate] | 0.848 |
| O=Nc1c(-c2c(O)[nH]c3cc(Br)ccc23)[nH]c2ccccc12 | 0.494 |
| CN(NC(=O)CC(=O)NN(C)C(=S)c1ccccc1)C(=S)c1ccccc1 [Elesclomol (STA-4783)] | 0.328 |
| CCCC(=O)O[C@]1(C(=O)COC(C)=O)CC[C@H]2[C@@H]3C[C@H](F)C4=CC(=O)C=C[C@]4(C)[C@@]3(F)[C@@H](O)C[C@@]21C [Difluprednate] | -0.232 |
| Nc1ccc(C(=O)NCC(=O)O)cc1 [4-Aminohippuric Acid] | 0.739 |
| COc1ccc(NS(=O)(=O)c2ccc(N)cc2)nn1 [Sulfamethoxypyridazine] | 0.367 |
| CNc1nc(Nc2cnn(C3CCN(C4COC4)CC3F)c2Cl)ncc1C(F)(F)F (stereo unspecified) | 1.38 |
| OC[C@H]1O[C@@H](Oc2ccc(O)cc2)[C@H](O)[C@@H](O)[C@@H]1O [Arbutin] | 0.287 |
| CN(C)CCc1c[nH]c2ccc(Cn3cncn3)cc12 [Rizatriptan Benzoate] | -0.294 |
| CC(C)C[C@@H](C=O)NC(=O)[C@H](CC(C)C)NC(=O)[C@H](CC(C)C)NC(=O)OCc1ccccc1 | -0.808 |
| CC(=O)Oc1cccc2c1C(=O)c1c(OC(C)=O)cc(C(=O)O)cc1C2=O [Diacerein] | 0.488 |
| CCN(CC)Cc1ccc2cc(COC(=O)Nc3ccc(C(=O)NO)cc3)ccc2c1 [Givinostat (ITF2357)] | -1.13 |
| N=C(N)NC(=N)N1CCOCC1 [Moroxydine HCl] | -0.392 |
| CC1(C)S[C@@H]2[C@H](NC(=O)[C@H](NC(=O)N3CCNC3=O)c3ccccc3)C(=O)N2[C@H]1C(=O)O [Azlocillin sodium salt] | 0.101 |
| CC(C)OC(=O)[C@H](C)N[P@](=O)(OC[C@H]1O[C@@H](n2ccc(=O)[nH]c2=O)[C@](C)(F)[C@@H]1O)Oc1ccccc1 [Sofosbuvir (PSI-7977, GS-7977)] | -0.0521 |
| Nc1nc2c(ncn2[C@@H]2O[C@H](CO)[C@@H](O)[C@H]2O)c(=O)[nH]1 [Guanosine] | -0.453 |
| CN(C)/N=N/c1[nH]cnc1C(N)=O [Dacarbazine] | -0.186 |
| Cn1cc(-c2ccc3ncc(Cc4ccc5ncccc5c4)n3n2)cn1 | -0.812 |
| Cc1cc(NC(=O)Nc2ccc(N(C)C)cc2)c2cc(F)cc(F)c2n1 | 0.208 |
| Cc1cn([C@H]2O[C@@H](CO)[C@H](O)[C@H]2F)c(=O)[nH]c1=O [Clevudine] | 0.794 |
| CCOC(=O)[C@H](CCc1ccccc1)N[C@@H](C)C(=O)N1Cc2ccccc2C[C@H]1C(=O)O [Quinapril HCl] | -0.786 |
| NC1(C(=O)N[C@@H](CCO)c2ccc(Cl)cc2)CCN(c2ncnc3[nH]ccc23)CC1 | -0.451 |
| CC(CCc1ccccc1)NCC(O)c1ccc(O)c(C(N)=O)c1 (stereo unspecified) [Labetalol HCl] | -0.59 |
| O=C(O)c1cccnc1Nc1cccc(C(F)(F)F)c1 [Niflumic acid] | -0.48 |

— the supplement of paper PMC10663445
